PMC4908242, “Functional Characterization of a Small-Molecule Inhibitor of the DKK1-LRP6 Interaction” (ISRN Molecular Biology, 2012)
No constants are given. Whether binding was seen depends on the method and setting. Some binding calls cover weakened binding; strength is not graded here. Where a sequence is shown, tags or fusion partners need not be part of it.

The chains behind the UniProt entries cited, without tags or fusion partners. Residues count along the entry.
UniProt O75581, residues 20-1613: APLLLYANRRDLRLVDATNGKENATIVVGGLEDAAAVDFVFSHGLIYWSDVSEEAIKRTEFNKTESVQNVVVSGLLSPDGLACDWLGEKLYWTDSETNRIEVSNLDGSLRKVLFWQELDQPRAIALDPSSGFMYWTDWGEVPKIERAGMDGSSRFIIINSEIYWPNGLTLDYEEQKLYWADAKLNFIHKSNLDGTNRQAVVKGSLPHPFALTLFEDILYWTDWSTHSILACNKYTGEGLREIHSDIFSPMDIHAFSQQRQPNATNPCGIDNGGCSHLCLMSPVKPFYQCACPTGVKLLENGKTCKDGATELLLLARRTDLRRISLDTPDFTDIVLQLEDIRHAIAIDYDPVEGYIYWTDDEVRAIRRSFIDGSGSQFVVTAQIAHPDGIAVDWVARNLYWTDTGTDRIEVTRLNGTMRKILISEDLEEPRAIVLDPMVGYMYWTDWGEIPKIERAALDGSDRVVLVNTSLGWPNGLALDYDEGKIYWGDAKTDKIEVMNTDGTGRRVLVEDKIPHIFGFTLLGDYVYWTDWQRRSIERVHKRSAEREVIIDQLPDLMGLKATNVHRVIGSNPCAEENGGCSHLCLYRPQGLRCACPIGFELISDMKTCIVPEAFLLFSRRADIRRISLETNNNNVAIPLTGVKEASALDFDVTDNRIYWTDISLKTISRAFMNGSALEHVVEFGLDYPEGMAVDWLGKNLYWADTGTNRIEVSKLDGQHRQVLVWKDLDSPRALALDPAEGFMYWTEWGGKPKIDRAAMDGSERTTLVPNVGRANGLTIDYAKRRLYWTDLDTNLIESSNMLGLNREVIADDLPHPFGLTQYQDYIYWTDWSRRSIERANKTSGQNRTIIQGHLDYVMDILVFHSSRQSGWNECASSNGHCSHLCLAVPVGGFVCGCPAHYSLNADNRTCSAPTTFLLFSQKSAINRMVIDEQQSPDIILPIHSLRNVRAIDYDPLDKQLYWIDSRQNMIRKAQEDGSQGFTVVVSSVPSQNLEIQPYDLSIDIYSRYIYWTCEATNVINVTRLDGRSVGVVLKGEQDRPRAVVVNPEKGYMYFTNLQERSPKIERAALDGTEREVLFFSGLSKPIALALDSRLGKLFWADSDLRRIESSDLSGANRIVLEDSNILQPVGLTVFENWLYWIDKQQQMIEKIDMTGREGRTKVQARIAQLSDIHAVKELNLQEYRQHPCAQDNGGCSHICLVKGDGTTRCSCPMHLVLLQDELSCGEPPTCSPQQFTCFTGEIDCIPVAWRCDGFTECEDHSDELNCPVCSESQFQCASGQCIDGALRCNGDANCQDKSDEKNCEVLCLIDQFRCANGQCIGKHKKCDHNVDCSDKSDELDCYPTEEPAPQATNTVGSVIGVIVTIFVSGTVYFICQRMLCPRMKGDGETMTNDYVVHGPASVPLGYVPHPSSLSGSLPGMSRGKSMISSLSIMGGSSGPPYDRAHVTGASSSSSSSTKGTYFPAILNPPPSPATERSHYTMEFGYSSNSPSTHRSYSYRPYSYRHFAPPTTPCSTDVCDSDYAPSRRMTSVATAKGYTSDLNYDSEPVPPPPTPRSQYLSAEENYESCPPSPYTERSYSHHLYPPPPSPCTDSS

Molecular target: full-length human LRP6 stably expressed on HEK293 cells (HEK293-LRP6) (human) (UniProt O75581)
Test: AP-DKK1 binding assay (alkaline phosphatase activity of cell-bound AP-DKK1); AP-DKK1 conditioned medium (20 mU/mL) on HEK293-LRP6 cells with increasing concentrations of NCI8642; AP activity in the cell lysate measured with AttoPhos substrate

- binding: binds
B1: Commercial purified recombinant human DKK1 (ligand, UniProt O94907 32-266, looked up)
chain: TLNSVLNSNAIKNLPPPLGGAAGHPGSAVSAAPGILYPGGNKYQTIDNYQPYPCAEDEECGTDEYCASPTRGGDAGVQICLACRKRRKRCMRHAMCCPGNYCKNGICVSSDQNHFRGEIEETITESFGNDHSTLDGYSRRTTLSSKMYHTKGQEGSVCLRSSDCASGLCCARHFWSKICKPVLKEGQVCTKHRRKGSHGLEIFQRCYCGEGLSCRIQKDHHQASNSSRLHTCQRH
notes: Dickkopf 1 (DKK1), human, commercial recombinant protein; Neither catalogue number nor construct limits are printed; also called Dickkopf 1; commercial recombinant DKK1; source: bought: R&D Systems, purified recombinant
